# Data from the supplement of paper PMC8728848.
# The list shows a part of the results.
# B1: his-Lectin-24A (Drosophila melanogaster) (protein)
# chain: MFRLSVLVLNLLLVSHEFSAGTAKIEIQPLPALCNGYCFPTLKPVMEYVAIHQDKWNTCTEILANEARKDQIQLNIQLDALKADVSNIKASQLSKDEKLDRMEREQFAMHESLETINRYLTVKLDRTKLQLEAIKNTMDYMKAQMDGYFSAINGVQCLQPGFEKIGDRYFYIEEDVELNWLDAQAKCRRMGGHLASIKTKQEFDAIVEKLDDSKSYFLGVNENTKTGDFVSAASGKSCLYHEWGPGEPHHNNDQERCVSILRKLMHVGNCTYEKRFICQYGI
# Assays:
# Assay in all cases: glycan array binding signal (z-score within array); higher = stronger binding
# Details in all cases: glycan notation: IUPAC condensed, linker removed
# [1] = target: Gal(b1-4)GlcNAc(b1-3)Gal(b1-4)Glc
# Summary of the method: (§1)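 Arrays were curated from the Consortium for Functional Glycomics database, 3228 in total, and kept only where the protein sequence was available. Binding is expressed as a within-array Z-score. This score was averaged across arrays of the same protein sequence at different concentrations or buffers and across linkers, and negative values can be read as non-binding.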
# [2] = target: Gal(b1-4)GlcNAc(b1-3)Gal(b1-4)GlcNAc
# Summary of the method: as §1
# [3] = target: Gal(b1-4)GlcNAc(b1-3)Gal(b1-4)GlcNAc(b1-2)Man(a1-3)[Gal(b1-4)GlcNAc(b1-3)Gal(b1-4)GlcNAc(b1-2)Man(a1-6)]Man(b1-4)GlcNAc(b1-4)GlcNAc
# Summary of the method: as §1
# [4] = target: Gal(b1-4)GlcNAc(b1-3)Gal(b1-4)GlcNAc(b1-2)Man(a1-3)[Gal(b1-4)GlcNAc(b1-3)Gal(b1-4)GlcNAc(b1-2)Man(a1-6)]Man(b1-4)GlcNAc(b1-4)[Fuc(a1-6)]GlcNAc
# Summary of the method: as §1
# [5] = target: Gal(b1-4)GlcNAc(b1-3)Gal(b1-4)GlcNAc(b1-2)[Gal(b1-4)GlcNAc(b1-3)Gal(b1-4)GlcNAc(b1-6)]Man(a1-6)[Gal(b1-4)GlcNAc(b1-3)Gal(b1-4)GlcNAc(b1-2)Man(a1-3)]Man(b1-4)GlcNAc(b1-4)GlcNAc
# Summary of the method: as §1
# [6] = target: Gal(b1-4)GlcNAc(b1-3)Gal(b1-4)GlcNAc(b1-2)[Gal(b1-4)GlcNAc(b1-3)Gal(b1-4)GlcNAc(b1-6)]Man(a1-6)[Gal(b1-4)GlcNAc(b1-3)Gal(b1-4)GlcNAc(b1-2)Man(a1-3)]Man(b1-4)GlcNAc(b1-4)[Fuc(a1-6)]GlcNAc
# Summary of the method: as §1
# [7] = target: Gal(b1-4)GlcNAc(b1-3)Gal(b1-4)GlcNAc(b1-3)Gal(b1-4)GlcNAc
# Summary of the method: as §1
# [8] = target: Gal(b1-4)GlcNAc(b1-3)Gal(b1-4)GlcNAc(b1-3)Gal(b1-4)GlcNAc(b1-2)Man(a1-3)[Gal(b1-4)GlcNAc(b1-3)Gal(b1-4)GlcNAc(b1-3)Gal(b1-4)GlcNAc(b1-2)Man(a1-6)]Man(b1-4)GlcNAc(b1-4)GlcNAc
# Summary of the method: as §1
# [9] = target: Gal(b1-4)GlcNAc(b1-3)Gal(b1-4)GlcNAc(b1-3)Gal(b1-4)GlcNAc(b1-2)Man(a1-3)[Gal(b1-4)GlcNAc(b1-3)Gal(b1-4)GlcNAc(b1-3)Gal(b1-4)GlcNAc(b1-2)Man(a1-6)]Man(b1-4)GlcNAc(b1-4)[Fuc(a1-6)]GlcNAc
# Summary of the method: as §1
# [10] = target: Gal(b1-4)GlcNAc(b1-3)Gal(b1-4)GlcNAc(b1-3)Gal(b1-4)GlcNAc(b1-2)[Gal(b1-4)GlcNAc(b1-3)Gal(b1-4)GlcNAc(b1-3)Gal(b1-4)GlcNAc(b1-6)]Man(a1-6)[Gal(b1-4)GlcNAc(b1-3)Gal(b1-4)GlcNAc(b1-3)Gal(b1-4)GlcNAc(b1-2)Man(a1-3)]Man(b1-4)GlcNAc(b1-4)[Fuc(a1-6)]GlcNAc
# Summary of the method: as §1
# [11] = target: Gal(b1-4)GlcNAc(b1-3)Gal(b1-4)GlcNAc(b1-3)Gal(b1-4)GlcNAc(b1-3)Gal(b1-4)GlcNAc(b1-2)Man(a1-3)[Gal(b1-4)GlcNAc(b1-3)Gal(b1-4)GlcNAc(b1-3)Gal(b1-4)GlcNAc(b1-3)Gal(b1-4)GlcNAc(b1-2)Man(a1-6)]Man(b1-4)GlcNAc(b1-4)GlcNAc
# Summary of the method: as §1
# [12] = target: Gal(b1-4)GlcNAc(b1-3)Gal(b1-4)GlcNAc(b1-3)Gal(b1-4)GlcNAc(b1-3)Gal(b1-4)GlcNAc(b1-2)Man(a1-3)[Gal(b1-4)GlcNAc(b1-3)Gal(b1-4)GlcNAc(b1-3)Gal(b1-4)GlcNAc(b1-3)Gal(b1-4)GlcNAc(b1-2)Man(a1-6)]Man(b1-4)GlcNAc(b1-4)[Fuc(a1-6)]GlcNAc
# Summary of the method: as §1
# [13] = target: Gal(b1-4)GlcNAc(b1-3)Gal(b1-4)GlcNAc(b1-3)Gal(b1-4)GlcNAc(b1-3)Gal(b1-4)GlcNAc(b1-2)[Gal(b1-4)GlcNAc(b1-3)Gal(b1-4)GlcNAc(b1-3)Gal(b1-4)GlcNAc(b1-3)Gal(b1-4)GlcNAc(b1-6)]Man(a1-6)[Gal(b1-4)GlcNAc(b1-3)Gal(b1-4)GlcNAc(b1-3)Gal(b1-4)GlcNAc(b1-3)Gal(b1-4)GlcNAc(b1-2)Man(a1-3)]Man(b1-4)GlcNAc(b1-4)[Fuc(a1-6)]GlcNAc
# Summary of the method: as §1
# [14] = target: Gal(b1-4)GlcNAc(b1-3)Gal(b1-4)GlcNAc(b1-3)Gal(b1-4)GlcNAc(b1-3)Gal(b1-4)GlcNAc(b1-3)Gal(b1-4)GlcNAc(b1-2)Man(a1-3)[Gal(b1-4)GlcNAc(b1-3)Gal(b1-4)GlcNAc(b1-3)Gal(b1-4)GlcNAc(b1-3)Gal(b1-4)GlcNAc(b1-3)Gal(b1-4)GlcNAc(b1-2)Man(a1-6)]Man(b1-4)GlcNAc(b1-4)GlcNAc
# Summary of the method: as §1
# [15] = target: Gal(b1-4)GlcNAc(b1-3)Gal(b1-4)GlcNAc(b1-3)Gal(b1-4)GlcNAc(b1-3)Gal(b1-4)GlcNAc(b1-3)Gal(b1-4)GlcNAc(b1-2)Man(a1-3)[Gal(b1-4)GlcNAc(b1-3)Gal(b1-4)GlcNAc(b1-3)Gal(b1-4)GlcNAc(b1-3)Gal(b1-4)GlcNAc(b1-3)Gal(b1-4)GlcNAc(b1-2)Man(a1-6)]Man(b1-4)GlcNAc(b1-4)[Fuc(a1-6)]GlcNAc
# Summary of the method: as §1
# [16] = target: Gal(b1-4)GlcNAc(b1-3)Gal(b1-4)GlcNAc(b1-3)Gal(b1-4)GlcNAc(b1-3)Gal(b1-4)GlcNAc(b1-3)Gal(b1-4)GlcNAc(b1-2)[Gal(b1-4)GlcNAc(b1-3)Gal(b1-4)GlcNAc(b1-3)Gal(b1-4)GlcNAc(b1-3)Gal(b1-4)GlcNAc(b1-3)Gal(b1-4)GlcNAc(b1-6)]Man(a1-6)[Gal(b1-4)GlcNAc(b1-3)Gal(b1-4)GlcNAc(b1-3)Gal(b1-4)GlcNAc(b1-3)Gal(b1-4)GlcNAc(b1-3)Gal(b1-4)GlcNAc(b1-2)Man(a1-3)]Man(b1-4)GlcNAc(b1-4)[Fuc(a1-6)]GlcNAc
# Summary of the method: as §1
# [17] = target: Gal(b1-4)GlcNAc(b1-3)Gal(b1-4)GlcNAc(b1-3)Gal(b1-4)GlcNAc(b1-3)Gal(b1-4)GlcNAc(b1-3)Gal(b1-4)GlcNAc(b1-3)Gal(b1-4)GlcNAc(b1-2)Man(a1-3)[Gal(b1-4)GlcNAc(b1-3)Gal(b1-4)GlcNAc(b1-3)Gal(b1-4)GlcNAc(b1-3)Gal(b1-4)GlcNAc(b1-3)Gal(b1-4)GlcNAc(b1-3)Gal(b1-4)GlcNAc(b1-2)Man(a1-6)]Man(b1-4)GlcNAc(b1-4)GlcNAc
# Summary of the method: as §1
# [18] = target: Gal(b1-4)GlcNAc(b1-3)Gal(b1-4)GlcNAc(b1-3)GalNAc
# Summary of the method: as §1
# [19] = target: Gal(b1-4)GlcNAc(b1-3)Gal(b1-4)GlcNAc(b1-3)[Gal(b1-4)GlcNAc(b1-3)Gal(b1-4)GlcNAc(b1-6)]GalNAc
# Summary of the method: as §1
binder,measurement,setting,value
B1,glycan array binding signal (z-score),[1],-0.367
same,glycan array binding signal (z-score),[2],0.528
same,glycan array binding signal (z-score),[3],-0.705
same,glycan array binding signal (z-score),[4],-0.062
same,glycan array binding signal (z-score),[5],1.25
same,glycan array binding signal (z-score),[6],-0.228
same,glycan array binding signal (z-score),[7],-0.79
same,glycan array binding signal (z-score),[8],0.203
same,glycan array binding signal (z-score),[9],0.054
same,glycan array binding signal (z-score),[10],2.08
same,glycan array binding signal (z-score),[11],0.686
same,glycan array binding signal (z-score),[12],3.44
same,glycan array binding signal (z-score),[13],0.582
same,glycan array binding signal (z-score),[14],4.07
same,glycan array binding signal (z-score),[15],0.752
same,glycan array binding signal (z-score),[16],2.31
same,glycan array binding signal (z-score),[17],2.1
same,glycan array binding signal (z-score),[18],0.73
same,glycan array binding signal (z-score),[19],0.144

# A second format for some results above:
binder | measurement | setting | value
B1 | glycan array binding signal (z-score) | [16] | 2.31
same | glycan array binding signal (z-score) | [17] | 2.1
